# Measured data: PubChem BioAssay AID1259425 (University of Nebraska Medical Center, 2018)
# Aim: 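Find knockdowns that reproduce the gene expression pattern seen when KSR1 is lost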 (primary screen)
# Cell system: HCT116 human colon cancer cells
# Reagents: siRNA pool against human genes, 50 nM siRNA
# Measured: 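mRNA of six signature genes measured together by branched-DNA assay after 50 nM siRNA pool, blank removed, divided by geometric mean of two housekeeping genes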
# Direction: BNIP3L mRNA: higher = more BNIP3L transcript after knockdown
# In all, the deposit lists about 14,000 reagents; this is an unselected part. Further read-outs or replicates are left out here. Not given: the time to read-out.
target gene,"BNIP3L mRNA, set 1"
MRPS24,0.12
NAPA,1.85
MPZ,0.11
PLN,0.113
SSH1,0.0776
DGKA,0.197
H1-1,0.129
MVP,0.198
CASP8AP2,0.129
JAG1,0.0597
DUSP4,0.0917
ZNF227,0.143
ANK3,0.0948
GRPR,0.108
MPG,0.12
SLC25A5,0.0937
DCHS1,0.121
CHST1,0.266
ADAM3B,0.177
KSR2,0.0588
SEZ6L,0.224
GLB1L,0.112
HACE1,0.171
CPED1,0.175
DHFRP3,0.102
DPY30,0.0782
SCAND1,0.137
ZPBP,0.11
ABHD11,0.141
PDCL3,0.0679
ZMIZ1,0.104
CUL3,0.0449
PITX2,0.0552
CPVL,0.057

A portion of the results above, as a working copy:
target gene,"BNIP3L mRNA, set 1"
DUSP4,0.0917
ZNF227,0.143
ANK3,0.0948
GRPR,0.108
